{"source": "PubChem BioAssay AID256", "about": "(DTP/NCI, 2004)", "test_system": "CD2F1 mice, L1210 leukemia ip, survival T/C", "assay": "NCI In Vivo Anticancer Drug Screen. Data for tumor model L1210 Leukemia (intraperitoneal) in CD2F1 (CDF1) mice", "conditions": "higher T/C = longer survival", "how_it_was_run": "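Transplantable tumor in mice; compound-treated vs vehicle-treated groups. Read-out = treated/control ratio of the measured endpoint.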", "key": {"[1]": {"conditions": "T/C endpoint: mean survival time, dose: 400.0 mg/kg/injection, schedule: Q04DX003 (ip), vehicle: saline with Tween-80"}}, "note": "The list shows only some results of the screen, not a fair sample: it gathers tests that were run many times, whatever their T/C, doses with no T/C, and many T/C values between a quarter and a half above the control. Further doses and runs are listed elsewhere. T/C is the treated group as % of the vehicle group. Some doses have a count of surviving animals in place of a T/C: the source holds a T/C of zero for them, seemingly a mark for toxic or unscored doses. Some doses without a T/C left all or most animals alive at the check, yet need not have been tolerated: survival well below the control is almost never listed, so the zero probably covers shortened survival too. Counts of survivors are from the toxicity check (mostly the fifth day) where no day follows; animals may have died later. Schedule codes are those of the source, read here as Q, the interval in days (D) or hours (H), X, the number of doses. Some entries were tested several times; the values are given in rising order. Where survival is the endpoint, this PubChem deposit counts one and a half times the control or more as active, and values a quarter to a half above the control carry no call in these data; other NCI protocols may use other cut-offs. Some T/C values are followed by the survivors on the day toxicity was checked, most often the fifth; without a count, all were alive then.", "data": [{"molecule": "COc1cc2c(cc1OC)C1c3cc(OC)c(OC)cc3CCN1CC2", "values": [{"measurement": "survivor count", "setting": "T/C endpoint: mean survival time, dose: 50.0 mg/kg/injection, schedule: Q01DX009 (ip), vehicle: other", "result": "1 of 6"}, {"measurement": "survivor count", "setting": "T/C endpoint: mean survival time, dose: 100.0 mg/kg/injection, schedule: Q01DX009 (ip), vehicle: other", "result": "0 of 6"}, {"measurement": "survivor count", "setting": "T/C endpoint: mean survival time, dose: 200.0 mg/kg/injection, schedule: Q01DX009 (ip), vehicle: other", "result": "0 of 6"}]}, {"molecule": "CC[N+](CC)(CC)Cc1ccccc1", "values": [{"measurement": "survivor count", "setting": "T/C endpoint: mean survival time, dose: 100.0 mg/kg/injection, schedule: Q04DX003 (ip), vehicle: saline with Tween-80", "result": "0 of 6"}, {"measurement": "survivor count", "setting": "T/C endpoint: mean survival time, dose: 200.0 mg/kg/injection, schedule: Q04DX003 (ip), vehicle: saline with Tween-80", "result": "0 of 6"}, {"measurement": "survivor count", "setting": "[1]", "result": "0 of 6"}]}, {"molecule": "C[C@@](O)(/C=C/[C@H]1CC=CC(=O)O1)[C@@H](C[C@@H](O)\\C=C/C=C\\C=C\\CO)OP(=O)(O)O", "values": [{"measurement": "T/C", "setting": "T/C endpoint: median survival time, dose: 0.78 mg/kg/injection, schedule: Q01DX009 (ip), vehicle: other", "result": "128 % of control"}, {"measurement": "T/C", "setting": "T/C endpoint: median survival time, dose: 0.78 mg/kg/injection, schedule: Q01DX009 (ip), vehicle: saline", "result": "140 % of control"}, {"measurement": "T/C", "setting": "T/C endpoint: median survival time, dose: 1.56 mg/kg/injection, schedule: Q01DX009 (ip), vehicle: other", "result": "137 % of control"}, {"measurement": "T/C", "setting": "T/C endpoint: median survival time, dose: 3.12 mg/kg/injection, schedule: Q01DX005 (iv), vehicle: saline", "result": "128 % of control"}, {"measurement": "T/C", "setting": "T/C endpoint: median survival time, dose: 6.25 mg/kg/injection, schedule: Q01DX005 (iv), vehicle: saline", "result": "145 % of control"}, {"measurement": "T/C", "setting": "T/C endpoint: median survival time, dose: 12.5 mg/kg/injection, schedule: Q01DX009 (ip), vehicle: other", "result": "146 % of control"}, {"measurement": "survivor count", "setting": "T/C endpoint: median survival time, dose: 25.0 mg/kg/injection, schedule: Q01DX009 (ip), vehicle: other", "result": "1 of 6 and 4 of 6"}, {"measurement": "T/C", "setting": "T/C endpoint: median survival time, dose: 25.0 mg/kg/injection, schedule: Q01DX009 (ip), vehicle: saline", "result": "132 % of control [5 of 6 alive]"}, {"measurement": "survivor count", "setting": "T/C endpoint: median survival time, dose: 50.0 mg/kg/injection, schedule: Q01DX009 (ip), vehicle: other", "result": "0 of 6 and 3 of 6"}]}, {"molecule": "NC(CNC(=O)CBr)C(=O)O", "note": "(centres undefined)", "values": [{"measurement": "T/C", "setting": "T/C endpoint: median survival time, dose: 6.25 mg/kg/injection, schedule: Q01DX009 (ip), vehicle: water", "result": "125 % of control"}, {"measurement": "T/C", "setting": "T/C endpoint: median survival time, dose: 12.0 mg/kg/injection, schedule: Q01DX009 (ip), vehicle: water", "result": "126 and 133 % of control"}, {"measurement": "T/C", "setting": "T/C endpoint: median survival time, dose: 24.0 mg/kg/injection, schedule: Q01DX009 (ip), vehicle: water", "result": "136 % of control"}, {"measurement": "T/C", "setting": "T/C endpoint: median survival time, dose: 48.0 mg/kg/injection, schedule: Q01DX009 (ip), vehicle: water", "result": "145 % of control"}, {"measurement": "survivor count", "setting": "T/C endpoint: median survival time, dose: 50.0 mg/kg/injection, schedule: Q01DX009 (ip), vehicle: water", "result": "3 of 6"}, {"measurement": "survivor count", "setting": "T/C endpoint: median survival time, dose: 96.0 mg/kg/injection, schedule: Q01DX009 (ip), vehicle: water", "result": "1 of 6"}, {"measurement": "survivor count", "setting": "T/C endpoint: median survival time, dose: 100.0 mg/kg/injection, schedule: Q01DX009 (ip), vehicle: water", "result": "0 of 6"}]}, {"molecule": "C[n+]1c(/C=N/NC(N)=S)ccc2ccccc21", "values": [{"measurement": "survivor count", "setting": "T/C endpoint: median survival time, dose: 200.0 mg/kg/injection, schedule: Q01DX009 (ip), vehicle: saline with Tween-80", "result": "6 of 6"}]}, {"molecule": "C=CCOC(=O)CCCCCCCCC(=O)OCC=C", "values": [{"measurement": "survivor count", "setting": "T/C endpoint: mean survival time, dose: 400.0 mg/kg/injection, schedule: Q01DX009 (ip), vehicle: saline with Tween-80", "result": "0 of 6"}, {"measurement": "survivor count", "setting": "[1]", "result": "6 of 6"}]}, {"molecule": "C=[CH][Pb]([CH]=C)([O]C(=O)C(C)C)[O]C(=O)C(C)C", "values": [{"measurement": "survivor count", "setting": "T/C endpoint: mean survival time, dose: 20.0 mg/kg/injection, schedule: Q01DX009 (ip), vehicle: saline with Tween-80", "result": "2 of 6"}]}, {"molecule": "OCC1OC(n2cnc3c(SSc4ncnc5c4ncn5C4CC(O)C(CO)O4)ncnc32)CC1O", "note": "(centres undefined)", "values": [{"measurement": "T/C", "setting": "T/C endpoint: mean survival time, dose: 267.0 mg/kg/injection, schedule: Q01DX001 (ip), vehicle: saline", "result": "125 % of control [5 of 6 alive]"}, {"measurement": "T/C", "setting": "T/C endpoint: mean survival time, dose: 400.0 mg/kg/injection, schedule: Q01DX001 (ip), vehicle: saline", "result": "130 % of control"}, {"measurement": "T/C", "setting": "T/C endpoint: mean survival time, dose: 600.0 mg/kg/injection, schedule: Q01DX001 (ip), vehicle: saline", "result": "131 % of control [5 of 6 alive]"}]}]}
